Laboratory results from patent US20220220216A1.
No constants are given. Whether binding was seen depends on the method and setting. Some results given as binding are weak or reduced against the parent protein; the word gives no strength.

Protein sequences, listed by entry. Tags and fused reporters are not part of them. Residues count along the entry.
UniProt P51654, residues 25-559: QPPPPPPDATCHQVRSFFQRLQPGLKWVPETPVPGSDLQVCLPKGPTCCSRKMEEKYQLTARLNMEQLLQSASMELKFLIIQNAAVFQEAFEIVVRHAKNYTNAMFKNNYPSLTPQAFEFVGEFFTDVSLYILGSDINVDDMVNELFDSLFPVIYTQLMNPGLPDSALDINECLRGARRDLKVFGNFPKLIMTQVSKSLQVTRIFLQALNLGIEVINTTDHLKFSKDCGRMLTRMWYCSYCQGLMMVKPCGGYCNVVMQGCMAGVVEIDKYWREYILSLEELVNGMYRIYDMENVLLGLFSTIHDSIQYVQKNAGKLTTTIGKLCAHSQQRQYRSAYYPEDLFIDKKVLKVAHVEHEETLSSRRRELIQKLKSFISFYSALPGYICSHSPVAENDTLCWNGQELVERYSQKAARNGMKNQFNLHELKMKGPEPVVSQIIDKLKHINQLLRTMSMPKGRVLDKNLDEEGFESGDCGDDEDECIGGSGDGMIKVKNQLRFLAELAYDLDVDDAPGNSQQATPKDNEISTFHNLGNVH

Experiments:
[1] = target: Human GPC3-His (manufactured by ACROBiosystems, Inc.) (human) (UniProt P51654); assay: SPR (Biacore T100), antibody captured on anti-human IgG, antigen as analyte, single cycle kinetics
[2] = target: Human GPC3-His (manufactured by ACROBiosystems, Inc.) (human) (UniProt P51654); assay: SPR (Biacore T100)

binding [1]: binds | binding [2]: binds
B1: conventional anti-GPC3 antibody HN3 (IgG4PE R409K) (antibody, V domains shown)
VH: QVQLVQSGGGLVQPGGSLRLSCAASYFDFDSYEMSWVRQAPGKGLEWIGSIYHSGSTYYNPSLKSRVTISRDNSKNTLYLQMNTLRAEDTATYYCARVNMDRFDYWGQGTLVTVSS
